Data as given in PubChem BioAssay AID504744 (Drosophila RNAi Screening Center, 2011)

Screen: 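Identify dsRNAs that increase or decrease phospho-dAkt after insulin treatment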 (primary screen)
Cell system: Drosophila Kc167 cells
Knock-down reagent: long dsRNA against Drosophila genes, 250 ng dsRNA per well of a 384-well plate
Time to read-out: 3 days of knock-down, then overnight serum-free starvation before stimulation
Treatment: bovine insulin at 387 nM for 10 minutes after 12 h without serum
Read-out: 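Per-well phospho-dAkt level from an in-cell fluorescent antibody stain, divided by a DNA-dye signal; log2 residuals turned into z-scores that take cell number into account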
Active means: 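Under insulin, a gene counts as a hit if the average z-score of two replicates lies above 2.5 or below -2.5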
In all, the deposit lists about 23,000 reagents; this is an unselected part of those with a known target gene and a result. Of all reagents, 98 (0.43%) are marked active. 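Only hit calls are given; the phospho-dAkt signals, z-scores and hit direction were not deposited.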 A plus sign joins genes that one reagent is predicted to hit.

Target gene	DRSC id	call
nur (GeneID 318957)	DRSC01342	inactive
CG2003 (GeneID 43761)	DRSC15411	inactive
Mco4 (GeneID 326221)	DRSC20061	inactive
Qsox1 (GeneID 36464)	DRSC06878	inactive
CG10300 (GeneID 42798)	DRSC14225	inactive
CG8665 (GeneID 35407)	DRSC03098	inactive
Pi4KIIIalpha (GeneID 31247)	DRSC18655	inactive
rost (GeneID 34222)	DRSC03603	inactive
ppk21 (GeneID 43485)	DRSC14466	inactive
GM130 (GeneID 37524)	DRSC04617	inactive
CG17328 (GeneID 34962)	DRSC01927	inactive
CG17328 (GeneID 34962)	DRSC22448	inactive
RalGPS (GeneID 36881)	DRSC06941	inactive
Polr2H (GeneID 40415)	DRSC11642	inactive
CG13028 (GeneID 2768967)	DRSC09908	inactive
CG13590 (GeneID 37907)	DRSC04226	inactive
CG12316 (GeneID 39650)	DRSC09879	inactive
CG34433 (GeneID 5740702)	DRSC15077	inactive
CG31268 (GeneID 318652)	DRSC13203	inactive
Mks1 (GeneID 32200)	DRSC19697	inactive
CG17378 (GeneID 33951)	DRSC02616	inactive
neb (GeneID 35293)	DRSC03577	inactive
Spn42Db (GeneID 35599)	DRSC05009	inactive
CG11110 (GeneID 37337)	DRSC06037	inactive
betaTry (GeneID 47901)	DRSC07582	inactive
betaTry (GeneID 47901)	DRSC22377	inactive
CG4806 (GeneID 37948)	DRSC04491	inactive
CG33013 (retired record) (GeneID 318830)	DRSC06286	inactive
CG8060 (GeneID 36824)	DRSC07064	inactive
mamo (GeneID 32353)	DRSC19370	inactive
CG6055 (GeneID 34027)	DRSC02923	inactive
MED18 (GeneID 31140)	DRSC18549	inactive
TwdlC (GeneID 43245)	DRSC14749	inactive
CG31743 + CG34313	DRSC02781	inactive
CG31743 + CG34313	DRSC02782	inactive
shrb (GeneID 35933)	DRSC07061	inactive
CG14669 (GeneID 40652)	DRSC12065	inactive
CG14669 (GeneID 40652)	DRSC12067	inactive
CG14669 (GeneID 40652)	DRSC12068	inactive
CG14669 (GeneID 40652)	DRSC12255	inactive
HP1D3csd (GeneID 32906)	DRSC19548	inactive
TfIIB (GeneID 34430)	DRSC03454	inactive
robl37BC (GeneID 35166)	DRSC02472	inactive
C1GalTA (GeneID 34215)	DRSC03246	inactive
GstT2 (GeneID 246386)	DRSC06244	inactive
CG11741 (GeneID 5740784)	DRSC14367	inactive
nbs (GeneID 44259)	DRSC11373	inactive
PGAP1 (GeneID 31487)	DRSC18286	inactive
spirit (GeneID 31797)	DRSC18202	inactive
scrib (GeneID 44448)	DRSC13774	inactive
scrib (GeneID 44448)	DRSC15809	inactive
scrib (GeneID 44448)	DRSC17051	inactive
Reck (GeneID 39629)	DRSC10504	inactive
Reck (GeneID 39629)	DRSC10505	inactive
l(3)S110416 (retired record) (GeneID 46908)	DRSC17094	inactive
BRWD3 (GeneID 42898)	DRSC15369	inactive
BRWD3 (GeneID 42898)	DRSC16032	inactive

23 consecutive reagents from above, quoted:
Target gene	DRSC id	call
ppk21 (GeneID 43485)	DRSC14466	inactive
GM130 (GeneID 37524)	DRSC04617	inactive
CG17328 (GeneID 34962)	DRSC01927	inactive
CG17328 (GeneID 34962)	DRSC22448	inactive
RalGPS (GeneID 36881)	DRSC06941	inactive
Polr2H (GeneID 40415)	DRSC11642	inactive
CG13028 (GeneID 2768967)	DRSC09908	inactive
CG13590 (GeneID 37907)	DRSC04226	inactive
CG12316 (GeneID 39650)	DRSC09879	inactive
CG34433 (GeneID 5740702)	DRSC15077	inactive
CG31268 (GeneID 318652)	DRSC13203	inactive
Mks1 (GeneID 32200)	DRSC19697	inactive
CG17378 (GeneID 33951)	DRSC02616	inactive
neb (GeneID 35293)	DRSC03577	inactive
Spn42Db (GeneID 35599)	DRSC05009	inactive
CG11110 (GeneID 37337)	DRSC06037	inactive
betaTry (GeneID 47901)	DRSC07582	inactive
betaTry (GeneID 47901)	DRSC22377	inactive
CG4806 (GeneID 37948)	DRSC04491	inactive
CG33013 (retired record) (GeneID 318830)	DRSC06286	inactive
CG8060 (GeneID 36824)	DRSC07064	inactive
mamo (GeneID 32353)	DRSC19370	inactive
CG6055 (GeneID 34027)	DRSC02923	inactive

More results follow:
Target gene	DRSC id	call
lncRNA:CR32658 (GeneID 3772624)	DRSC19402	inactive
Takl2 (GeneID 42692)	DRSC15650	inactive
CG12517 (GeneID 34506)	DRSC02173	inactive
CG2006 + Spase12	DRSC14316	inactive
Dh31 (GeneID 34181)	DRSC02196	inactive
ITP (GeneID 37921)	DRSC04222	inactive
CG43896 (GeneID 39360)	DRSC10754	inactive
Mst57Da (GeneID 47954)	DRSC16744	inactive
CG11380 (GeneID 31065)	DRSC18632	inactive
CG34248 (GeneID 5740883)	DRSC09426	inactive
ksh (GeneID 50363)	DRSC19554	inactive
CG13471 (GeneID 39604)	DRSC10015	inactive
niki (GeneID 42959)	DRSC14285	inactive
CG32486 (GeneID 38367)	DRSC08413	inactive
CG32486 (GeneID 38367)	DRSC08488	inactive
CG8578 (GeneID 32540)	DRSC20114	inactive
CG5070 (GeneID 32705)	DRSC19932	inactive
CG13622 (GeneID 42923)	DRSC14624	inactive
GstO2 (GeneID 38974)	DRSC10691	inactive
LysD + LysC (retired record)	DRSC08674	inactive
LysD + LysC (retired record)	DRSC22743	inactive
Snx17 (GeneID 34354)	DRSC02884	inactive
Nepl13 (GeneID 42699)	DRSC15632	inactive
SCCRO (GeneID 39685)	DRSC10844	inactive
Rab4 + CG42239	DRSC05667	inactive
oaf (GeneID 33435)	DRSC00831	inactive
Syx7 (GeneID 36173)	DRSC11763	inactive
Tnpo (GeneID 38721)	DRSC11309	inactive
Sr-CI (GeneID 33621)	DRSC00790	inactive
CG18262 (GeneID 31745)	DRSC18149	inactive
CG14855 (GeneID 41789)	DRSC14979	inactive
CG12986 (GeneID 32759)	DRSC19506	inactive
Pal1 + Pdrg1	DRSC06587	inactive
CG13380 + CG4174	DRSC09988	inactive
CG13380 + CG4174	DRSC10406	inactive
CG11158 (GeneID 32327)	DRSC19389	inactive
CG10918 (GeneID 33123)	DRSC20472	inactive
Cul3 (GeneID 34896)	DRSC03537	inactive
Cul3 (GeneID 34896)	DRSC21525	inactive
lncRNA:CR41601 (GeneID 5740627)	DRSC22158	inactive
CG1663 (GeneID 36012)	DRSC06613	inactive
CG1663 (GeneID 36012)	DRSC22488	inactive
Ucp4B (GeneID 33833)	DRSC02665	inactive
Ag5r2 (GeneID 44079)	DRSC19328	inactive
CG3706 (GeneID 53540)	DRSC18649	inactive
Gyc89Da (GeneID 42001)	DRSC15008	inactive
ND6 (retired record) (GeneID 192479)	DRSC21271	inactive
CG14245 (GeneID 3772449)	DRSC14740	inactive
CG32548 (GeneID 32826)	DRSC19627	inactive
CG32548 (GeneID 32826)	DRSC19982	inactive
Rim (GeneID 42150)	DRSC16224	inactive
Rim (GeneID 42150)	DRSC16225	inactive
Rim (GeneID 42150)	DRSC16226	inactive
Rim (GeneID 42150)	DRSC16227	inactive
Rim (GeneID 42150)	DRSC22406	inactive
CG9590 (GeneID 41907)	DRSC16506	inactive
CstF50 (GeneID 43734)	DRSC15434	inactive
Nipsnap (GeneID 32573)	DRSC20169	inactive
Alp2 (GeneID 37539)	DRSC04354	inactive
Ass + CG31286	DRSC12493	inactive
CG12347 (GeneID 42152)	DRSC14502	inactive
CG31706 (GeneID 261621)	DRSC22704	inactive
CG16852 (GeneID 34769)	DRSC01876	inactive
CG10211 (GeneID 35106)	DRSC02027	inactive
mib1 (GeneID 39750)	DRSC10550	inactive
Sema1b (GeneID 37007)	DRSC07550	inactive
Glt (GeneID 34193)	DRSC03333	inactive
CG43322 (GeneID 33984)	DRSC02280	inactive
Tpst (GeneID 32312)	DRSC18989	inactive
Tpst (GeneID 32312)	DRSC19696	inactive
Tpst (GeneID 32312)	DRSC19723	inactive
Tpst (GeneID 32312)	DRSC19724	inactive
Tpst (GeneID 32312)	DRSC22621	inactive
ash2 (GeneID 42936)	DRSC16902	inactive
Hsp70Aa + Hsp70Ab	DRSC21246	inactive
Osi14 (GeneID 40770)	DRSC12368	inactive
Arp8 (GeneID 32769)	DRSC20059	inactive
Syn1 (GeneID 40424)	DRSC11803	inactive
Syn1 (GeneID 40424)	DRSC11804	inactive
Mef2 (GeneID 36032)	DRSC07468	inactive
PDZ-GEF (GeneID 33881)	DRSC03231	inactive
mas (GeneID 38499)	DRSC08720	inactive
CG31099 (GeneID 326117)	DRSC14252	inactive
Ser8 (GeneID 36489)	DRSC06891	inactive
hwt (GeneID 32202)	DRSC19386	inactive
Act88F (GeneID 41885)	DRSC14105	inactive
CG30203 (GeneID 246514)	DRSC06690	inactive
CG32971 (GeneID 318271)	DRSC01372	inactive
Spag1 (GeneID 43239)	DRSC15331	inactive
Wdr92 (GeneID 39997)	DRSC10187	inactive
CG31010 (GeneID 318555)	DRSC14006	inactive
CG14655 (GeneID 40594)	DRSC12241	inactive
CG4546 (GeneID 41922)	DRSC15593	inactive
CG32391 (GeneID 318007)	DRSC08865	inactive
CG3734 (GeneID 42318)	DRSC15509	inactive
Oatp74D (GeneID 39954)	DRSC09491	inactive
Oatp74D (GeneID 39954)	DRSC10883	inactive
CG42700 (GeneID 36330)	DRSC06292	inactive
CG42700 (GeneID 36330)	DRSC06293	inactive
DptB (GeneID 37184)	DRSC06001	inactive
